PubChem BioAssay AID743121, NCATS | 2013
This is one part, drawn at random, of about 26,000 deposited reagents. 167 of all reagents (0.63%) count as active. 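Calls are per gene from RSA p-values that are not deposited; an individual active-marked siRNA can sensitise only weakly.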 Unmarked entries are inactive. The numbers tell different reagents against one gene apart. Further read-outs or replicates are left out here. No sequences are given here.

- Screen: 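Partners whose loss is lethal together with topoisomerase I blockade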 (primary screen)
- Cell system: MDA-MB-231 cells, a human breast cancer line
- Reagents: single siRNA against human genes, 20 nM siRNA (0.8 pmol per well)
- Time to read-out: 120 h (drug added 48 h after transfection, read 72 h later)
- Challenge: camptothecin 20 nM (about EC30) for 72 h; vehicle 0.1% DMSO in parallel plates
- Detection: 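Cell viability by ATP luminescence (CellTiter-Glo) as % of non-targeting siRNA wells, and the log2 ratio of viability without drug over viability with camptothecin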
- Scale: log2 vehicle/camptothecin viability: higher = stronger sensitisation to camptothecin; viability with camptothecin: higher = more viable cells
- Units: viability with camptothecin in % of control
- Active means: 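Active genes have an RSA gene-level p-value below 0.001, computed from the ratios of their separate siRNAs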

KCND1 (potassium voltage-gated channel subfamily D member 1) #1 | log2 vehicle/camptothecin viability = -0.119; viability with camptothecin = 55.3
KCND1 (potassium voltage-gated channel subfamily D member 1) #2 | log2 vehicle/camptothecin viability = -0.156; viability with camptothecin = 32.4
KCND1 (potassium voltage-gated channel subfamily D member 1) #3 | log2 vehicle/camptothecin viability = -0.38; viability with camptothecin = 67
KCND1 (potassium voltage-gated channel subfamily D member 1) #4 | log2 vehicle/camptothecin viability = -0.351; viability with camptothecin = 95.2
DMPK (DM1 protein kinase) #1 | log2 vehicle/camptothecin viability = 0.141; viability with camptothecin = 81.3
DMPK (DM1 protein kinase) #2 | log2 vehicle/camptothecin viability = -0.13; viability with camptothecin = 107
DMPK (DM1 protein kinase) #3 | log2 vehicle/camptothecin viability = -0.165; viability with camptothecin = 69.3
DMPK (DM1 protein kinase) #4 | log2 vehicle/camptothecin viability = 0.374; viability with camptothecin = 59.1

2 entries from above, arranged by “viability with camptothecin”, lowest first.
KCND1 (potassium voltage-gated channel subfamily D member 1) #3 | log2 vehicle/camptothecin viability = -0.38; viability with camptothecin = 67
KCND1 (potassium voltage-gated channel subfamily D member 1) #4 | log2 vehicle/camptothecin viability = -0.351; viability with camptothecin = 95.2

The listing continues:
GNMT (glycine N-methyltransferase) #1 | log2 vehicle/camptothecin viability = 1.17; viability with camptothecin = 19.1
GNMT (glycine N-methyltransferase) #2 | log2 vehicle/camptothecin viability = -0.242; viability with camptothecin = 29.7
GNMT (glycine N-methyltransferase) #3 | log2 vehicle/camptothecin viability = 0.379; viability with camptothecin = 74.9
GNMT (glycine N-methyltransferase) #4 | log2 vehicle/camptothecin viability = -0.389; viability with camptothecin = 123
RNASEL (ribonuclease L) #1 | log2 vehicle/camptothecin viability = -0.207; viability with camptothecin = 68.8
RNASEL (ribonuclease L) #2 | log2 vehicle/camptothecin viability = -0.217; viability with camptothecin = 97
RNASEL (ribonuclease L) #3 | log2 vehicle/camptothecin viability = -0.264; viability with camptothecin = 58.9
RNASEL (ribonuclease L) #4 | log2 vehicle/camptothecin viability = -0.496; viability with camptothecin = 96.5
STX12 (syntaxin 12) #1 | log2 vehicle/camptothecin viability = 0.258; viability with camptothecin = 42.2
STX12 (syntaxin 12) #2 | log2 vehicle/camptothecin viability = 0.391; viability with camptothecin = 68
STX12 (syntaxin 12) #3 | log2 vehicle/camptothecin viability = -0.16; viability with camptothecin = 35.2
STX12 (syntaxin 12) #4 | log2 vehicle/camptothecin viability = -0.422; viability with camptothecin = 74.8
ITGB5 (integrin subunit beta 5) #1 | log2 vehicle/camptothecin viability = -0.372; viability with camptothecin = 69.8
ITGB5 (integrin subunit beta 5) #2 | log2 vehicle/camptothecin viability = -0.192; viability with camptothecin = 78.1
ITGB5 (integrin subunit beta 5) #3 | log2 vehicle/camptothecin viability = 0.163; viability with camptothecin = 54.2
ITGB5 (integrin subunit beta 5) #4 | log2 vehicle/camptothecin viability = -0.524; viability with camptothecin = 67.6
